Values quoted from earlier work, collected in patent US20110082545A1, “DRUG ELUTING BREAST IMPLANT COVER OR COATING” (LIPOSE CORPORATION, priority 2009, published 2011).
For at least one compound, name, drawing or mass did not settle the structure.

Tested on: capsular contracture
Details: administered orally

Row | Structure (SMILES) | ability to moderate the capsular contracture
1 | CC(C)(O)c1ccccc1CC[C@@H](SCC1(CC(=O)O)CC1)c1cccc(/C=C/c2ccc3ccc(Cl)cc3n2)c1 [montelukast] | demonstrated the ability to moderate the capsular contracture
2 | O=C(Nc1cccc2c(=O)cc(-c3nnn[nH]3)oc12)c1ccc(OCCCCc2ccccc2)cc1 [pranlukast] | demonstrated the ability to moderate the capsular contracture
